PubChem BioAssay AID1671195 | Yale University – 2021

- Aim: 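Regulators of LDL receptor activity judged by labelled LDL uptake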 (primary screen)
- Cells: human Huh7 hepatoma cells
- Reagent: siRNA pool against human genes, 18 nM
- Time to read-out: about 2 to 2.5 days of knockdown, then 8 h LDL uptake
- Conditions: DiI-labelled LDL at 30 µg/ml for 8 h, in lipoprotein-deficient serum medium
- Read-out: 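Per-cell DiI-LDL intensity by automated imaging; well means scaled to the plate median and given as a robust z-score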
- Reading the numbers: robust z-score: higher = more LDL uptake after knockdown
- Active means: 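a gene counts as active if at least two replicate z-scores exceed ±2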
In all, the deposit lists about 22,000 reagents; below is a random part of them. In the full data, about 1,510 (6.9%) are marked active. 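Active includes knockdowns raising or lowering LDL uptake; positive z-scores mean more uptake, negative mean less.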 Reagent sequences are not shown.

no.	Gene	robust z-score, replicate 1	robust z-score, replicate 2	robust z-score, replicate 3	activity call
1	C1orf220	-1.11	-1.18	-1.01	inactive
2	RSPH4A	-1.18	-0.481	-0.989	inactive
3	FHAD1	0.497	-1.49	-0.848	inactive
4	SLC39A10	0.0674	0.116	1.16	inactive
5	HIP1R	-0.616	0.948	0.0396	inactive
6	ZRANB2	0.182	0.414	0.285	inactive
7	GRB2	-0.706	0.495	-0.903	inactive
8	LRRFIP2	-1.12	-0.625	-0.756	inactive
9	NXNL1	-0.299	-0.171	-0.257	inactive
10	LOC441399 (retired record)	1.56	0.422	0.347	inactive
11	TPGS2	-0.98	-0.485	-1.59	inactive
12	CLXN	1.03	2.19	1.77	inactive
13	CARD14	-1.15	-1.4	-1.54	inactive
14	ANO8	-1.55	-1.32	-0.28	inactive
15	FBXW9	0.00569	-0.249	-0.359	inactive
16	LOC388806 (retired record)	-0.494	-0.688	-0.282	inactive
17	RASD1	2.37	1.19	3.37	active
18	ZBTB8A	-0.922	-0.112	-1.28	inactive
19	DFFA	0.13	0.0881	0.821	inactive
20	DIABLO	-0.668	-0.651	-0.724	inactive
21	PTPDC1	-1.72	-1.88	-1.77	inactive
22	GLE1	0.323	-0.308	1.15	inactive
23	LINC01366	1.48	1.44	0.822	inactive
24	ENG	0.361	0.539	-0.215	inactive
25	CDK16	-1.28	-1.01	-1.61	inactive
26	SBF2	-1.29	-1.36	-1.54	inactive
27	L3MBTL1	-0.477	-1.2	-0.203	inactive
28	PRG4	1.73	-0.101	0.753	inactive
29	XRRA1	-0.937	-1.09	-0.243	inactive
30	LOC392512 (retired record)	-0.852	-0.233	-0.203	inactive
31	COX6C	1.39	1.5	-2.56	inactive
32	ATOX1	0.523	0.928	0.478	inactive
33	TXNDC2	-0.734	-0.98	-0.912	inactive
34	IRAG2	0.296	-0.167	-0.943	inactive
35	ZNF641	1.83	1.08	0.521	inactive
36	TBC1D7	1.56	0.262	1.43	inactive
37	EPB41L4A-AS1	0.335	-0.407	-0.056	inactive
38	NEMP1	-0.575	-1.25	-1.43	inactive
39	MCRIP1	0.608	0.928	0.848	inactive
40	MRGPRG-AS1	0.0448	-0.035	-0.231	inactive
41	DCAF11	0.421	0.419	-0.0143	inactive
42	TRMT1	-0.316	-0.375	-1.32	inactive
43	ADAM2	0.262	-0.166	0.737	inactive
44	IL36B	0.707	2.87	3.17	active
45	TMOD1	-1.66	-2.61	-1.22	inactive
46	SOS2	0.546	-0.0629	1.1	inactive
47	PGLYRP2	0.454	-0.398	-0.309	inactive
48	ZNF674-AS1	-0.119	0.0402	0.00435	inactive
49	SLC1A6	1.02	2.37	1.95	active
50	SETBP1	0.185	-0.0685	-0.0711	inactive
51	C3orf18	-1.56	0.349	-1.76	inactive
52	LCMT2	0.0929	0.657	0.515	inactive
53	STPG3	-0.0163	0.307	0.514	inactive
54	WDR13	1.09	1.42	0.809	inactive
55	GFRA1	-0.123	1.11	-0.287	inactive
56	SYNPO2L	-2.43	-2.24	-1.63	active
57	CALR4P	0.474	0.762	1.28	inactive
58	SKAP1	0.137	-0.11	-0.638	inactive
59	LINC01597	-0.148	-0.796	-0.42	inactive
60	C22orf23	0.0204	0.356	-0.08	inactive
61	BPNT2	0.027	-0.321	1.17	inactive
62	TMEM121	0.288	-0.434	0.231	inactive
63	MARCHF2	-2.65	-1.37	-1.86	active
64	LINC02120	-0.605	-0.641	-0.513	inactive
65	IFNGR2	-1.15	1.52	-0.188	inactive
66	PPP6R1	0.786	0.764	1.31	inactive
67	CLSPN	0.41	-0.171	-0.208	inactive
68	GOLGB1	-0.687	-0.0481	-0.676	inactive
